From PMC10887741
These are yes or no findings as the source states them, for the method shown. Binding calls can cover weak binding; strength is not graded here. For some of these results: Sequences can lack the tags named with a protein. For some of these results: Binding seen in cells or lysates may run through a third protein.

Amino acid sequences for entries named in this document (tags omitted). A change or cut given only in a name is not applied to a line headed by its entry.
UniProt Q8NFJ6: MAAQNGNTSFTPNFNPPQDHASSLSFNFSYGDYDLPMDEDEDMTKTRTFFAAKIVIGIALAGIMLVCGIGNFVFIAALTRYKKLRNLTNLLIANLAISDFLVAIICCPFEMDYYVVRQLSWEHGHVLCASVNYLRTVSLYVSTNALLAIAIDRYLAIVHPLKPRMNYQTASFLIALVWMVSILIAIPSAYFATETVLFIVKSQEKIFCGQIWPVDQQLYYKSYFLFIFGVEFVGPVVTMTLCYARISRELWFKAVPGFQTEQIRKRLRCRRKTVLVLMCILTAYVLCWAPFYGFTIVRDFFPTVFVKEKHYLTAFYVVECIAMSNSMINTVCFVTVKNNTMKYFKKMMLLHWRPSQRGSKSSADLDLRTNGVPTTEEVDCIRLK
UniProt P32121: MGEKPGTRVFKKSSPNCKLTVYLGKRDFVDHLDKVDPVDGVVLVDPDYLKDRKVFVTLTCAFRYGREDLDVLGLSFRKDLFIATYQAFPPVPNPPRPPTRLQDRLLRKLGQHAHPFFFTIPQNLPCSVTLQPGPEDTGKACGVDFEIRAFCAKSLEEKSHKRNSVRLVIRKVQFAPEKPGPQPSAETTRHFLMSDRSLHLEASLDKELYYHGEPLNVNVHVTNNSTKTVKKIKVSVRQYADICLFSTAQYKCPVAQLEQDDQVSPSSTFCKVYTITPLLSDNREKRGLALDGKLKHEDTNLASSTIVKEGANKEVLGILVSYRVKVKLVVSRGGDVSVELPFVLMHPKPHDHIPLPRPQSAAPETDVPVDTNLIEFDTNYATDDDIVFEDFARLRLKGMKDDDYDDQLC

Assays:
PKR2-ΔC52 mutant-rLuc = PKR2-ΔC52 mutant-rLuc (UniProt Q8NFJ6); assay: FRET or BRET; BRET in CHO cells stably expressing rGFP-β-arrestin-2, transiently transfected with a constant amount of receptor-rLuc and increasing amounts of MRAP2 vector; 5 μM coelenterazine in PBS; without or with PK2
[1] = molecular target: T1, hMRAP2-Glutathione S-Transferase (hMRAP2-GST) (human) (UniProt Q96G30); assay: pull-down; GST fusion protein held on glutathione-Sepharose beads, buffer A (PBS, 1% Nonidet P 40, 1 mM EDTA), incubated with purified His-tagged protein from E. coli; eluted with GSH, Western blot; both purified
T1 sequence: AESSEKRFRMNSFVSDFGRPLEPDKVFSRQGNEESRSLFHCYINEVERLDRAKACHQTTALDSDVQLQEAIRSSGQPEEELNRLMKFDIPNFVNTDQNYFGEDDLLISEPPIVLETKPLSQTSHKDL

[2] = molecular target: T2, CT-MRAP2 (C-terminal domain of MRAP2, residues 78-204) (human) (UniProt Q96G30); assay: co-IP; total proteins from E. coli co-expressing CT-MRAP2 FLAG and His-tagged β-arrestin-2 or p44; FLAG bind resin, native conditions; blots with anti-FLAG and anti-His
T2 sequence: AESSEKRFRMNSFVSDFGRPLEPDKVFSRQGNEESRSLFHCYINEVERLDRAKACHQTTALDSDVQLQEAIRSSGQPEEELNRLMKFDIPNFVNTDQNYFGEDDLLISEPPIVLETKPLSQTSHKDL

PKR2-ΔC52 mutant = PKR2-ΔC52 mutant (UniProt Q8NFJ6); assay: cross-linking; CHO cells co-expressing MRAP2 and WT PKR2 or PKR2-ΔC52 incubated with dithiobis(succinimidyl propionate) (2 mM); membrane proteins on SDS-PAGE, blot with anti-PKR2

With “fluorescent β-arrestin-2 (GFP-β-arrestin-2) (from UniProt P32121 1-409)” the binding (PKR2-ΔC52 mutant-rLuc) was “binds”.

“p44 with His TAG (splicing variant of β-arrestin-2 with deletion of C terminal tail)” was tested, and the binding [1] was “binds” and the binding [2] was “binds”.

B1: Melanocortin receptor accessory protein 2 (MRAP2) (protein, UniProt Q96G30 1-205)
chain: MSAQRLISNRTSQQSASNSDYTWEYEYYEIGPVSFEGLKAHKYSIVIGFWVGLAVFVIFMFFVLTLLTKTGAPHQDNAESSEKRFRMNSFVSDFGRPLEPDKVFSRQGNEESRSLFHCYINEVERLDRAKACHQTTALDSDVQLQEAIRSSGQPEEELNRLMKFDIPNFVNTDQNYFGEDDLLISEPPIVLETKPLSQTSHKDLD
B1 was tested, and the binding (PKR2-ΔC52 mutant) was “binds”.
